The source of these data is publication doi:10.1101/2020.02.18.953711 (bioRxiv, 2020).

The target of test [1] is T1, CEPR2-YFP^N (Arabidopsis thaliana) (UniProt Q9C7T7).
T1 sequence: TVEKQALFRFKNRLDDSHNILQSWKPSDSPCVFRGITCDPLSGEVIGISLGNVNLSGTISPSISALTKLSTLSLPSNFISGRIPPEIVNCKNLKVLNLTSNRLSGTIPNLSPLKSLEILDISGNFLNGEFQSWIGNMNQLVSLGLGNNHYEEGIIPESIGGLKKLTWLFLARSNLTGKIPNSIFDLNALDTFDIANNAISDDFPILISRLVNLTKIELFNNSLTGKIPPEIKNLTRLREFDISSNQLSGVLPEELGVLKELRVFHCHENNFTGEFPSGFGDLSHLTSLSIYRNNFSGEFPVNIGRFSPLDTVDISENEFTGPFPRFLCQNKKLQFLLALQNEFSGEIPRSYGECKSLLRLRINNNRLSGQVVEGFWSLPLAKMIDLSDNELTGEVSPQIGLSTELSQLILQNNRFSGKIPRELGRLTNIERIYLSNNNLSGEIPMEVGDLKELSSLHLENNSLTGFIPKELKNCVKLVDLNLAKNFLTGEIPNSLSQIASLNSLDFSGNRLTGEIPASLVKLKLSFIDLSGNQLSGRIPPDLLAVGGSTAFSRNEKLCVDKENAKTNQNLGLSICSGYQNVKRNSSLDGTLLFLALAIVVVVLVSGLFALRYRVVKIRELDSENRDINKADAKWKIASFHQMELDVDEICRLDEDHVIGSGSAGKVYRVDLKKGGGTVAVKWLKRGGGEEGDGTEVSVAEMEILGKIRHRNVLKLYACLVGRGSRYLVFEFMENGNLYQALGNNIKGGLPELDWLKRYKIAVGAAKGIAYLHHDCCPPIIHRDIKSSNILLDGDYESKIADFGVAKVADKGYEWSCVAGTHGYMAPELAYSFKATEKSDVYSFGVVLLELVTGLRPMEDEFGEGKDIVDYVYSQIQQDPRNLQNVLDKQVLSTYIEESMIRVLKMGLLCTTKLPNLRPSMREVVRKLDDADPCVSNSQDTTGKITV
Put plainly: split reporter.

The target in test [2] is T2, C-terminally encoded peptide receptor 2 (CEPR2), MbSUS fusion (Arabidopsis thaliana) (UniProt Q9C7T7).
T2 sequence: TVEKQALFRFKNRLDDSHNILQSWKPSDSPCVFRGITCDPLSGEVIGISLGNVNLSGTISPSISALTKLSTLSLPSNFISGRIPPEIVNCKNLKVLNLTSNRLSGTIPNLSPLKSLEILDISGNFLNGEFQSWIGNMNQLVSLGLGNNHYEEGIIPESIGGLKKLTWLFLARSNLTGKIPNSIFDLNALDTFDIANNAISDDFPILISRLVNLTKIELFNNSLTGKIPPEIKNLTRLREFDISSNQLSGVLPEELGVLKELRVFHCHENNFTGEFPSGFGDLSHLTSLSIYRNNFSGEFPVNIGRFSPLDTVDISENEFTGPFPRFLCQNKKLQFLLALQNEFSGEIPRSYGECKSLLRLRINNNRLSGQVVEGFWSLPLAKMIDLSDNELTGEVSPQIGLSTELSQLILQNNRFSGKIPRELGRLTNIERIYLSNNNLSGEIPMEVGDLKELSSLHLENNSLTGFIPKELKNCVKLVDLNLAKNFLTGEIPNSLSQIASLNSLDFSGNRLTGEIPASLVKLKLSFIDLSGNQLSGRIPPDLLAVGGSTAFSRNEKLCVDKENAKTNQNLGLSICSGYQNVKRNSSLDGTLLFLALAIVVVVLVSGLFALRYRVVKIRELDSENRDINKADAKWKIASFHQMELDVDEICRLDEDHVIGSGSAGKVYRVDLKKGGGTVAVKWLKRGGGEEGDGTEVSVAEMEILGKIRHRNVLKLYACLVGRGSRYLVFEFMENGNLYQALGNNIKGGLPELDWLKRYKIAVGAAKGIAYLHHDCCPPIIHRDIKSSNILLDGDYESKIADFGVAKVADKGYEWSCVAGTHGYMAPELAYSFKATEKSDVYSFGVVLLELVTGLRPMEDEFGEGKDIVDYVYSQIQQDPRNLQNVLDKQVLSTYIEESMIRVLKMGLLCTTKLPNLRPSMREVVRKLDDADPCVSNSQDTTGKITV
Briefly: two-hybrid.

For test [3], the target named is T3, NRT1.2 N-terminal (NRT1.2N, 1-231 aa), MbSUS fusion (Arabidopsis thaliana) (UniProt Q8H157).
T3 sequence: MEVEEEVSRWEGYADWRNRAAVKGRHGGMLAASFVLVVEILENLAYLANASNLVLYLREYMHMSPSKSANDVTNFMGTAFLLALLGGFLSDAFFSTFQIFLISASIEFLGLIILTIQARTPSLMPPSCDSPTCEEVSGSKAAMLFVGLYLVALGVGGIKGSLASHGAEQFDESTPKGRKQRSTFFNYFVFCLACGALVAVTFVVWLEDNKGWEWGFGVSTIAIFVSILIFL
Briefly: two-hybrid.

The target in test [4] is T4, NRT1.2 cytosol loop region (NRT1.2^loop, 232-346 aa), MbSUS fusion (Arabidopsis thaliana) (UniProt Q8H157).
T4 sequence: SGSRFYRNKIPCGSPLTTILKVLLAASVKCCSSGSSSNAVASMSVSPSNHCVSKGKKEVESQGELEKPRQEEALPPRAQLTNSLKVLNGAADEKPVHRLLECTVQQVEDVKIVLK
Briefly: two-hybrid.

Substrate in the test “two-hybrid”: T5, C terminus of NRT1.2 (NRT1.2C, 347-585 aa), MbSUS fusion (Arabidopsis thaliana) (UniProt Q8H157)
T5 sequence: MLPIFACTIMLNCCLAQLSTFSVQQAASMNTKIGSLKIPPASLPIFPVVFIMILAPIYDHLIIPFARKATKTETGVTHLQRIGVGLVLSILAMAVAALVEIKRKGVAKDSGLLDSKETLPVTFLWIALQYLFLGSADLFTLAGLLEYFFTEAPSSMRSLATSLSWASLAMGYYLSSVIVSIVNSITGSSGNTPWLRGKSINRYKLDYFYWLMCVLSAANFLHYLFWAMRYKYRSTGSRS
Put plainly: two-hybrid.

Results are given in words; binding and its absence hold for the method and conditions named. For some assays here: Binding seen in cells or lysates may run through a third protein. Some results given as binding are weak or reduced against the parent protein; the word gives no strength. Tags and fused reporters may be left off the sequences shown.

B1: NRT1.2-YFP^C (protein, UniProt Q8H157 1-585)
chain: MEVEEEVSRWEGYADWRNRAAVKGRHGGMLAASFVLVVEILENLAYLANASNLVLYLREYMHMSPSKSANDVTNFMGTAFLLALLGGFLSDAFFSTFQIFLISASIEFLGLIILTIQARTPSLMPPSCDSPTCEEVSGSKAAMLFVGLYLVALGVGGIKGSLASHGAEQFDESTPKGRKQRSTFFNYFVFCLACGALVAVTFVVWLEDNKGWEWGFGVSTIAIFVSILIFLSGSRFYRNKIPCGSPLTTILKVLLAASVKCCSSGSSSNAVASMSVSPSNHCVSKGKKEVESQGELEKPRQEEALPPRAQLTNSLKVLNGAADEKPVHRLLECTVQQVEDVKIVLKMLPIFACTIMLNCCLAQLSTFSVQQAASMNTKIGSLKIPPASLPIFPVVFIMILAPIYDHLIIPFARKATKTETGVTHLQRIGVGLVLSILAMAVAALVEIKRKGVAKDSGLLDSKETLPVTFLWIALQYLFLGSADLFTLAGLLEYFFTEAPSSMRSLATSLSWASLAMGYYLSSVIVSIVNSITGSSGNTPWLRGKSINRYKLDYFYWLMCVLSAANFLHYLFWAMRYKYRSTGSRS
For B1, in test [1], the binding result is recorded as “binds”.

B2: ABCG40, MbSUS fusion (protein, UniProt Q9M9E1 1-1423)
chain: MEGTSFHQASNSMRRNSSVWKKDSGREIFSRSSREEDDEEALRWAALEKLPTFDRLRKGILTASHAGGPINEIDIQKLGFQDTKKLLERLIKVGDDEHEKLLWKLKKRIDRVGIDLPTIEVRFDHLKVEAEVHVGGRALPTFVNFISNFADKFLNTLHLVPNRKKKFTILNDVSGIVKPGRMALLLGPPSSGKTTLLLALAGKLDQELKQTGRVTYNGHGMNEFVPQRTAAYIGQNDVHIGEMTVRETFAYAARFQGVGSRYDMLTELARREKEANIKPDPDIDIFMKAMSTAGEKTNVMTDYILKILGLEVCADTMVGDDMLRGISGGQKKRVTTGEMLVGPSRALFMDEISTGLDSSTTYQIVNSLRNYVHIFNGTALISLLQPAPETFNLFDDIILIAEGEIIYEGPRDHVVEFFETMGFKCPPRKGVADFLQEVTSKKDQMQYWARRDEPYRFIRVREFAEAFQSFHVGRRIGDELALPFDKTKSHPAALTTKKYGVGIKELVKTSFSREYLLMKRNSFVYYFKFGQLLVMAFLTMTLFFRTEMQKKTEVDGSLYTGALFFILMMLMFNGMSELSMTIAKLPVFYKQRDLLFYPAWVYSLPPWLLKIPISFMEAALTTFITYYVIGFDPNVGRLFKQYILLVLMNQMASALFKMVAALGRNMIVANTFGAFAMLVFFALGGVVLSRDDIKKWWIWGYWISPIMYGQNAILANEFFGHSWSRAVENSSETLGVTFLKSRGFLPHAYWYWIGTGALLGFVVLFNFGFTLALTFLNSLGKPQAVIAEEPASDETELQSARSEGVVEAGANKKRGMVLPFEPHSITFDNVVYSVDMPQEMIEQGTQEDRLVLLKGVNGAFRPGVLTALMGVSGAGKTTLMDVLAGRKTGGYIDGNITISGYPKNQQTFARISGYCEQTDIHSPHVTVYESLVYSAWLRLPKEVDKNKRKIFIEEVMELVELTPLRQALVGLPGESGLSTEQRKRLTIAVELVANPSIIFMDEPTSGLDARAAAIVMRTVRNTVDTGRTVVCTIHQPSIDIFEAFDELFLLKRGGEEIYVGPLGHESTHLINYFESIQGINKITEGYNPATWMLEVSTTSQEAALGVDFAQVYKNSELYKRNKELIKELSQPAPGSKDLYFPTQYSQSFLTQCMASLWKQHWSYWRNPPYTAVRFLFTIGIALMFGTMFWDLGGKTKTRQDLSNAMGSMYTAVLFLGLQNAASVQPVVNVERTVFYREQAAGMYSAMPYAFAQVFIEIPYVLVQAIVYGLIVYAMIGFEWTAVKFFWYLFFMYGSFLTFTFYGMMAVAMTPNHHIASVVSSAFYGIWNLFSGFLIPRPSMPVWWEWYYWLCPVAWTLYGLIASQFGDITEPMADSNMSVKQFIREFYGYREGFLGVVAAMNVIFPLLFAVIFAIGIKSFNFQKR
Regarding B2, the binding entry in test [2] is on record as “no binding”.

B3: UBIQUITIN-CONJUGATING ENZYME 34 (UBC34), MbSUS fusion (enzyme, UniProt Q9SHI7 1-237)
chain: MAEKACIKRLQKEYRALCKEPVSHVVARPSPNDILEWHYVLEGSEGTPFAGGFYYGKIKFPPEYPYKPPGITMTTPNGRFMTQKKICLSMSDFHPESWNPMWSVSSILTGLLSFMMDTSPTTGSVNTTVIEKQRLAKSSLAFNCKTPAFRKLFPEYVEKYNQQQLAEQATTQLTTPESPQKSDTKVESEKTIDPTKGDSEGGLKERKKNNKQGLPAWIILLLVSVFGVVMALPLLQL
On to B3, for which the binding entry (in test [3]; in test [4]; in “two-hybrid”) was “binds” in each case.
